Laboratory results taken from patent US20260063643A1.
These are yes or no findings as the source states them, for the method shown. Some binding calls cover weakened binding; strength is not graded here.

Target: T1, human RANKL (soluble) (human) (UniProt O14788)
T1 sequence: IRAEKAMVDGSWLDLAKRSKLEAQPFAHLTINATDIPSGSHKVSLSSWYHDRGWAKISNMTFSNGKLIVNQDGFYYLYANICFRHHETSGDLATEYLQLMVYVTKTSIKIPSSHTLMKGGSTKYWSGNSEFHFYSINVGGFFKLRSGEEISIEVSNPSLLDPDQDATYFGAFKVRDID
Test: MSD bridging ECL assay on Study A serum samples treated with OPG

B1: osteoprotegerin (OPG) (receptor)
chain: ETFPPKYLHYDEETSHQLLCDKCPPGTYLKQHCTAKWKTVCAPCPDHYYTDSWHTSDECLYCSPVCKELQYVKQECNRTHNRVCECKEGRYLEIEFCLKHRSCPPGFGVVQAGTPERNTVCKRCPDGFFSNETSSKAPCRKHTNCSVFGLLLTQKGNATHDNICSGNSESTQKCGIDVTLCEEAFFRFAVPTKFTPNWLSVLVDNLPGTKVNAESVERIKRQHSSQEQTFQLLKLWKHQNKDQDIVKKIIQDIDLCENSVQRHIGHANLTFEQLRSLMESLPGKKVGAEDIEKTIKACKPSDQILKLLSLWRIKNGDQDTLKGLMHALKHSKTYHFPKTVTQSLKKTIRFLHSFTMYKLYQKLFLEMIGNQVQSVKISCL
binding: binds
